For one substance, binding results are on record in article PMC13376213, “Systematic discovery of motif-based interactions of the auxiliary domains of USP family deubiquitinases” (Nature Communications, 2026).

These are yes or no findings as the source states them, for the method shown. A result given as binding can be weak or reduced; the word gives no strength.

The target of the assay is T1, PARD3B peptide 171-186 (human).
T1 sequence (peptide): TQNLEDREVLNGVQTE
Kind of assay: peptide or protein array; peptides synthesised on cellulose membrane (SPOT); GST-tagged domain in 5% skim milk in TBST overnight at 4 °C; HRP-conjugated anti-GST, chemiluminescence; both purified.

Take “USP20 zf-UBP domain, GST-tagged (human) (domain or fragment)”: the binding result is on record as “binds”.
